Measurements published in the supplement of paper PMC5770031.
This is one part of the list. Single values are uncertain here, since repeats match poorly.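 ATM8/balancer (normal ATM) heterozygous flies were crossed on treated food; parents laid eggs 5–6 days, offspring developed ~12 days, so parents and larvae ingested compound. Readout: fraction of emerged adults homozygous for ATM8 versus 2% DMSO controls. Compounds were neutral at 10–20% homozygotes, harmful below 10%, helpful above 20%.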

System: Drosophila melanogaster ATM8 (temperature-sensitive ATM allele)
Experiment: fraction of eclosed F1 progeny that are homozygous ATM8 (rescue of developmental lethality); higher = more rescue of ATM8 developmental lethality; extreme values may be limits of the assay
Conditions: compound concentration applied to food 0.2 mM; 21 °C

With `CS(=N)(=O)CC[C@H](N)C(=O)O` (stereo not given in full) as the molecule, how does the “fraction of eclosed F1 progeny that are homozygous ATM8” value (shortened to “fraction”) read?
Its value is 0.118.

How did the “fraction” value turn out when `C#C[C@]1(OC(C)=O)CC[C@H]2[C@@H]3CCC4=C[C@@H](OC(C)=O)CC[C@@H]4[C@H]3CC[C@@]21C` was run?
Its value is 0.182.

With `Nc1ccc(S(=O)(=O)Nc2ncccn2)cc1` as the molecule, how does the “fraction” value read?
The value was 0.0769.

`C[C@@H]1CC[C@@]2(OC1)O[C@H]1C[C@H]3[C@@H]4CC[C@H]5C[C@@H](O)CC[C@]5(C)[C@H]4CC[C@]3(C)[C@H]1[C@@H]2C` was tested. Which “fraction” value did it give?
The value was 0.0938.

Which “fraction” value does the source give for `O=c1c(O)c(-c2ccccc2)oc2ccccc12` here?
Its value is 0.0714.

Which “fraction” value does the source give for `CO[C@@]1(NC(=O)C(C(=O)O)c2ccc(O)cc2)C(=O)N2C(C(=O)O)=C(CSc3nnnn3C)CO[C@@H]21` (stereo not given in full) here?
The value was 0.0889.

`C#C[C@]1(O)CC[C@H]2[C@@H]3CCC4=CC(=O)CC[C@@H]4[C@H]3CC[C@@]21C` was tested. Which “fraction” value did it give?
Its value is 0.2.

`COC(=O)C1=C(C)NC(C)=C(C(=O)OC)C1c1ccccc1[N+](=O)[O-]` was tested. Which “fraction” value did it give?
The value was 0.195.

For `COc1ccc2c(c1)[nH]c1c(C)nccc12`, which “fraction” value is on record?
Its value is 0.174.

For `Nc1ccc(O)c(C(=O)O)c1`, which “fraction” value is on record?
Its value is 0.148.

With `Cc1cc(OC(=O)c2c(C)cc(O)cc2O)cc(O)c1C(=O)O` as the molecule, how does the “fraction” value read?
The value was 0.0526.

Which “fraction” value does the source give for `Clc1ccccc1CN1CCc2sccc2C1` here?
Its value is 0.069.

`CN(C)CCCN1c2ccccc2CCc2ccc(Cl)cc21` was tested. Which “fraction” value did it give?
The value was 0.197.

How did the “fraction” value turn out when `CO[C@@]1(NC(=O)C2SC(=C(C(N)=O)C(=O)O)S2)C(=O)N2C(C(=O)O)=C(CSc3nnnn3C)CS[C@@H]21` (stereo not given in full) was run?
Its value is 0.0556.

Which “fraction” value does the source give for `Cc1cc(NC(=O)C2=C(O)c3ccccc3S(=O)(=O)N2C)no1` here?
The value was 0.087.

Which “fraction” value does the source give for `O=C1c2ccccc2C(=O)c2ccccc21` here?
The value was 0.0652.

How did the “fraction” value turn out when `Cc1cc(C(C)(C)CC(C)(C)C)ccc1OCCOCC[N+](C)(C)Cc1ccccc1` was run?
The value was 0.0236.

`N=c1ccn2c(n1)O[C@H]1[C@H](O)[C@@H](CO)O[C@H]12` was tested. Which “fraction” value did it give?
The value was 0.173.

How did the “fraction” value turn out when `CC(=O)Oc1c(C)cccc1C(=O)O` was run?
Its value is 0.267.

How did the “fraction” value turn out when `CCN(C(C)=O)c1cccc(-c2ccnc3c(C#N)cnn23)c1` was run?
The value was 0.108.

How did the “fraction” value turn out when `CS(=O)(=O)c1ccc([C@@H](O)[C@@H](CO)NC(=O)C(Cl)Cl)cc1` was run?
Its value is 0.0435.

Which “fraction” value does the source give for `CC(C)Cc1ccc([C@H](C)C(=O)O)cc1` here?
Its value is 0.0385.

How did the “fraction” value turn out when `NCCc1c[nH]c2ccc(O)cc12` was run?
Its value is 0.0667.

`CCOc1cc(NC(C)=O)ccc1C(=O)OC` was tested. Which “fraction” value did it give?
The value was 0.0526.

With `O=c1[nH]cc(F)c(=O)[nH]1` as the molecule, how does the “fraction” value read?
The value was 0.115.

Which “fraction” value does the source give for `O=C(O)c1cc(=O)c2cccc(O)c2[nH]1` here?
The value was 0.132.

`O=c1cc(-c2cc(O)c(O)c(O)c2)oc2cc(O)cc(O)c12` was tested. Which “fraction” value did it give?
The value was 0.267.

For `C[C@@H](c1ncncc1F)[C@](O)(Cn1cncn1)c1ccc(F)cc1F`, which “fraction” value is on record?
Its value is 0.0227.

With `O=[N+]([O-])c1ccc([As](=O)(O)O)cc1` as the molecule, how does the “fraction” value read?
The value was 0.0263.

Which “fraction” value does the source give for `O=C(Nc1cc(Cl)cc(Cl)c1O)c1c(O)c(Cl)cc(Cl)c1Cl` here?
The value was 0.111.

For `C[C@@H]1CC(=O)NN=C1c1ccc(NN=C(C#N)C#N)cc1`, which “fraction” value is on record?
Its value is 0.0645.

How did the “fraction” value turn out when `C[C@@H]1O[C@@H](Oc2c(-c3ccc(O)c(O)c3)oc3cc(O)cc(O)c3c2=O)[C@H](O)[C@H](O)[C@H]1O` was run?
Its value is 0.123.

For `CC(C)[C@@H]1CC[C@@H](C)C[C@H]1O`, which “fraction” value is on record?
Its value is 0.37.

Which “fraction” value does the source give for `O=C1C(CC[S+]([O-])c2ccccc2)C(=O)N(c2ccccc2)N1c1ccccc1` (stereo not given) here?
The value was 0.133.

Which “fraction” value does the source give for `CCC(COC(=O)c1cc(OC)c(OC)c(OC)c1)(c1ccccc1)N(C)C` (stereo not given) here?
The value was 0.149.

With `CC(=O)OC/C=C(C)/C=C/C=C(C)/C=C/C1=C(C)CCCC1(C)C` as the molecule, how does the “fraction” value read?
Its value is 0.0513.

Which “fraction” value does the source give for `NS(=O)(=O)c1cc2c(cc1Cl)N=C(CSCc1ccccc1)NS2(=O)=O` here?
Its value is 0.075.

With `OC[C@@H](O)[C@@H](O)CO` as the molecule, how does the “fraction” value read?
The value was 0.0952.

For `CC(C)c1ccc2c(c1)CCC1C(C)(C(N)=O)CCCC21C` (stereo not given), which “fraction” value is on record?
Its value is 0.

`CCC[C@H](N[C@@H](C)C(=O)N1[C@H](C(=O)O)C[C@@H]2CCCC[C@@H]21)C(=O)O` was tested. Which “fraction” value did it give?
Its value is 0.182.

With `Nc1ccc(S(=O)(=O)Nc2ccc(Cl)nn2)cc1` as the molecule, how does the “fraction” value read?
Its value is 0.0714.

For `CC(C)(O)CC[C@@H](O)[C@](C)(O)[C@H]1CC[C@@]2(O)C3=CC(=O)[C@@H]4C[C@@H](O)[C@@H](O)C[C@]4(C)[C@H]3CC[C@]12C`, which “fraction” value is on record?
The value was 0.153.

With `COC(=O)C(c1ccccc1)C1CCCCN1` (stereo not given) as the molecule, how does the “fraction” value read?
The value was 0.179.

Which “fraction” value does the source give for `Cc1cc2nc3ccc(N(C)C)cc3[s+]c2cc1N` here?
The value was 0.152.

How did the “fraction” value turn out when `COC1=C(O)C(=O)c2c(cc3oc(C(C)=O)c(O)c3c2O)C1=O` was run?
The value was 0.0909.

`C[C@H]1C(=O)O[C@@H]2CCN3CC=C(COC(=O)[C@](C)(O)[C@]1(C)O)[C@H]23` was tested. Which “fraction” value did it give?
The value was 0.188.

For `Oc1ccc(O)cc1`, which “fraction” value is on record?
Its value is 0.182.

How did the “fraction” value turn out when `COC[C@]12CN(C=O)[C@@H]3[C@@H]4[C@H](OC)[C@H]1[C@@]3([C@@H](OC)C[C@H]2O)[C@@H]1C[C@@]2(O)[C@H](OC(=O)c3ccccc3)[C@@H]1[C@]4(OC(C)=O)[C@@H](O)[C@@H]2OC` was run?
The value was 0.118.

For `CC1=C2C(O)C(=O)OC3CC4C(C)(C)C(=O)C=C[C@]4(C)C(CC1)[C@]23C` (stereo not given in full), which “fraction” value is on record?
The value was 0.0526.

How did the “fraction” value turn out when `CC1CCC(NC(=O)N(CCCl)N=O)CC1` (stereo not given) was run?
The value was 0.214.
